Data as given in PubChem BioAssay AID1159600 (NIAID, 2016).
Aim: 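Which TLR pathway genes support TNF promoter activation by R848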 (primary screen). System: human THP-1 TNF reporter clone B5, made macrophage-like with PMA. Reagent: single siRNA against human genes. Duration: 4 h ligand stimulation, assayed 48 to 72 h after siRNA transfection. Challenge: R848 (TLR7/8 agonist) for 4 hours before lysis; dose not given. Measurement: 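Robust z-score of firefly over renilla TNF promoter signal after 4 h R848, plate median/MAD normalised, relative to negative controls, averaged across replicates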. Direction: TNF reporter z-score: higher = stronger TNF promoter reporter signal after R848. Active means: 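siRNAs graded by distance of mean z-score from zero in steps of 1, 1.5, 2 and 2.5; active calls sit at roughly -1.5 or below, or 1.5 or above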. Meaning of the calls: active = strong change in TNF reporter (up or down); inactive = little change.
This is a random part of 756 deposited reagents. In the full data, 134 (18%) were called active. 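Active includes both reduced and increased reporter signal, though most active siRNAs reduce it; R848 dose unknown.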 A number with no mark means an inactive call. Reagents against one gene are numbered here. No sequences are given here. The record does not give: the amount of reagent.

no.	target gene	siRNA no.	TNF reporter z-score
1	CHUK	1	-0.314
2	CHUK	2	-0.00816
3	CHUK	3	-1.14
4	CHUK	4	-0.672
5	CHUK	5	-1.4
6	CHUK	6	0.0773
7	MAP3K7	1	-2.18 (active)
8	MAP3K7	2	-4.23 (active)
9	MAP3K7	3	-4.54 (active)
10	MAP3K7	4	-2.02 (active)
11	MAP3K7	5	-2.75 (active)
12	MAP3K7	6	-1.68 (active)
13	ATF2	1	-2.01 (active)
14	ATF2	2	-0.305
15	ATF2	3	-0.0201
16	ATF2	4	0.879
17	ATF2	5	0.917
18	ATF2	6	-1.76 (active)
19	MAP2K3	1	-0.533
20	MAP2K3	2	-0.276
21	MAP2K3	3	-0.51
22	MAP2K3	4	-1.7 (active)
23	MAP2K3	5	0.0946
24	MAP2K3	6	-3.35 (active)
25	MAP3K1	1	-1.39
26	MAP3K1	2	-0.404
27	MAP3K1	3	-0.924
28	MAP3K1	4	-1.72 (active)
29	MAP3K1	5	-0.942
30	MAP3K1	6	-0.0248
31	BTK	1	-0.0727
32	BTK	2	-0.682
33	BTK	3	-0.365
34	BTK	4	-0.455
35	BTK	5	-0.592
36	BTK	6	-0.66

A run of entries from the list above, for reference:
no.	target gene	siRNA no.	TNF reporter z-score
31	BTK	1	-0.0727
32	BTK	2	-0.682
33	BTK	3	-0.365
